Laboratory results taken from paper PMC3669046.
Substitutions are numbered along the chain they refer to. These are yes or no findings as the source states them, for the method shown. In cells and extracts the contact can be indirect. Some results given as binding are weak or reduced against the parent protein; the word gives no strength.

Sequences of proteins named here, by UniProt entry; tags and fusion partners are left off. A change or cut given only in a name is not applied to a line headed by its entry.
UniProt P49407: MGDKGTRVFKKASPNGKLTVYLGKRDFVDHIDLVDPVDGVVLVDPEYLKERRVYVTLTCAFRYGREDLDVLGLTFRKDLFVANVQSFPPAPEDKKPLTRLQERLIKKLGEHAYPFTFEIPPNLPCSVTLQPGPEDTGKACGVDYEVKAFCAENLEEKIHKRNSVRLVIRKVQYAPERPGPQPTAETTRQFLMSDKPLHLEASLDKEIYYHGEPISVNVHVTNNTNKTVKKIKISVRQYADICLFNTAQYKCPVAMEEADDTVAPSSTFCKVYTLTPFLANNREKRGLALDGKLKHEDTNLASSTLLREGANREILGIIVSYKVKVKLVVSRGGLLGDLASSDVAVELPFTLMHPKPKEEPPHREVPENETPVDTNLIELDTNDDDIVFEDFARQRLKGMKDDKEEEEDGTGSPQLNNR

How the values were obtained:
[1] = biological target: T1, VE-cadherin phosphomimetic mutant (SD), S665D (UniProt P33151); experiment: co-IP; HEK-293T co-transfected with VE-cadherin (WT, SV or SD) and CFP-myc-tagged β-arrestin1 (full-length, deleted forms or C-tail); IP fractions analysed by western-blot
T1 sequence: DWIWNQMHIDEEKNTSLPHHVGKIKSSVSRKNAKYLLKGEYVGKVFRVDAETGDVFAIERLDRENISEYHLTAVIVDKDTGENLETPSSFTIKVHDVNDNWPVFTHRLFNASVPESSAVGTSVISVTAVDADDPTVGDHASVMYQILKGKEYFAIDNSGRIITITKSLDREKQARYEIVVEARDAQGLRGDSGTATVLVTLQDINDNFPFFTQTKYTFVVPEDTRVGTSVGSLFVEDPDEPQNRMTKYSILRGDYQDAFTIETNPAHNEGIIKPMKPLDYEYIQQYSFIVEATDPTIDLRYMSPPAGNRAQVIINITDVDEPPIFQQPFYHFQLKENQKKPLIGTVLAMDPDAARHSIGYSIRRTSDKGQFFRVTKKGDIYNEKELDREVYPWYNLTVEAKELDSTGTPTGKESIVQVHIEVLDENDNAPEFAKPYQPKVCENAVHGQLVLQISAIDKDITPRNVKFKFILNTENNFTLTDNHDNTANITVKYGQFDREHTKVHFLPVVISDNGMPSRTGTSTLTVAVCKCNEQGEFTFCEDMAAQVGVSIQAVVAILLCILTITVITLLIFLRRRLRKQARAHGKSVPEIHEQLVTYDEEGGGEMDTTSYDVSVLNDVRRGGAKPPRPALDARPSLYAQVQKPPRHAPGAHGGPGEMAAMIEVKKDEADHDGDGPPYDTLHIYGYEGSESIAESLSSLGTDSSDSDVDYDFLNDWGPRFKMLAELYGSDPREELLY

[2] = biological target: T2, VE-cadherin wild-type (WT), expressed in HEK-293T (UniProt P33151); experiment: as above
T2 sequence: T1 sequence with D618S

[3] = biological target: T1, VE-cadherin phosphomimetic mutant (SD), S665D; experiment: co-IP; competition: HEK-293T co-transfected with VEC SD mutant, a constant amount of full-length myc-βarr1 and increasing concentrations of CFP-myc-tagged β-arrestin1 C-terminus tail; western-blot
[4] = biological target: T3, VE-cadherin (vascular endothelial cadherin), endogenous in HUVEC (human (endogenous in HUVEC)) (UniProt P33151); experiment: co-IP; endogenous proteins in HUVEC; overnight serum starvation, VEGF 50 ng/ml for the indicated times; anti-VE-cadherin and anti-β-arrestin1/2 immunoprecipitates analysed by western-blot
T3 sequence: T1 sequence with D618S

binding [1]	binding [2]	binding [3]	binding [4]	Substance
binds	–	–	–	CFP-myc-tagged β-arrestin1 C-terminus tail (amino acids 375-418) (from UniProt P49407 375-418) (domain or fragment)
binds	binds	binds	–	CFP-myc-tagged β-arrestin1, full-length (1-418) (from UniProt P49407 1-418)
–	–	–	binds	β-arrestin1, endogenous in HUVEC (from UniProt P49407 1-418)
